# Values joined by “and” are separate entries in the source; they are usually repeats but may differ in a detail not shown here. Equal entries are not always repeated. The shares of active, inactive and inconclusive entries below differ from those in the screen. For some assays here: Potencies of inconclusive entries are doubtful fits and often do not repeat. Active and inactive are the calls of the source. Rule for the calls: active = hit-call score of the fitted dose curve at least 0.9, where 1 is the maximum; inconclusive = response in the unintended direction; inactive = score below 0.9.
# Amino acid sequences for entries named in this document (tags omitted). A change or cut given only in a name is not applied to a line headed by its entry.
# UniProt P04150: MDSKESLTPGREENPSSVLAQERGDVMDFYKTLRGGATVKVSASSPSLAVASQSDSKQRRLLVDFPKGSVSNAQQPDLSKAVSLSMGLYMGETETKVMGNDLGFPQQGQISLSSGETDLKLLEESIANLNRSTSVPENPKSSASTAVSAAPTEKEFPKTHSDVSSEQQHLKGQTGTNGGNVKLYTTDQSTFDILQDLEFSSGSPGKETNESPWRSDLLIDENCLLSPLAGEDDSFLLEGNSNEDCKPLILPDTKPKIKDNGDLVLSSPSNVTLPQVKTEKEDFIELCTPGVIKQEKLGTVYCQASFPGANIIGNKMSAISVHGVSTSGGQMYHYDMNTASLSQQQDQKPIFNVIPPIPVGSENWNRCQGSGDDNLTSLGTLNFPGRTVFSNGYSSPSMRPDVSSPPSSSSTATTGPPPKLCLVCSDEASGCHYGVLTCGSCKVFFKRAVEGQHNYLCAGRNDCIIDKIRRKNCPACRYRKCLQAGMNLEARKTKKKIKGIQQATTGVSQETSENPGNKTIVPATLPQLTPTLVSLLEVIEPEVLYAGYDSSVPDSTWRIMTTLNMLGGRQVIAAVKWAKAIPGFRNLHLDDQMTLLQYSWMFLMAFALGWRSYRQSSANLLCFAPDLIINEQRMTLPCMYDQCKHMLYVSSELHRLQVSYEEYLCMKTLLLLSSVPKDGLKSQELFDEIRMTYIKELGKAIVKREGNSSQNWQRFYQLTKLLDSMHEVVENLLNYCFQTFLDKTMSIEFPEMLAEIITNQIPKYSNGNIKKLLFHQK
# UniProt Q96RI1: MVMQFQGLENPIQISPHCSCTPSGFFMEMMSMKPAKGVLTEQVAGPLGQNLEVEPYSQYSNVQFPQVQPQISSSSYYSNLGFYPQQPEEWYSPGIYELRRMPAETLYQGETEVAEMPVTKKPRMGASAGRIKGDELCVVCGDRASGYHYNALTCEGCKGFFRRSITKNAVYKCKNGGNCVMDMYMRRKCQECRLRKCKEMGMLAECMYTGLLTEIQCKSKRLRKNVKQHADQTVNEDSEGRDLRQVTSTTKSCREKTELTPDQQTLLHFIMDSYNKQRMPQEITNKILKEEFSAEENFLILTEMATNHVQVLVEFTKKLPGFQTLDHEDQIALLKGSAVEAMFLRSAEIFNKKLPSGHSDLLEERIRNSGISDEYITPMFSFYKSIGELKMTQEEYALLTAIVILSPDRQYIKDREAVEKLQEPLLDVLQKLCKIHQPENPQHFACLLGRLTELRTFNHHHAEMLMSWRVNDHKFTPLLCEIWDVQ
# UniProt O75469: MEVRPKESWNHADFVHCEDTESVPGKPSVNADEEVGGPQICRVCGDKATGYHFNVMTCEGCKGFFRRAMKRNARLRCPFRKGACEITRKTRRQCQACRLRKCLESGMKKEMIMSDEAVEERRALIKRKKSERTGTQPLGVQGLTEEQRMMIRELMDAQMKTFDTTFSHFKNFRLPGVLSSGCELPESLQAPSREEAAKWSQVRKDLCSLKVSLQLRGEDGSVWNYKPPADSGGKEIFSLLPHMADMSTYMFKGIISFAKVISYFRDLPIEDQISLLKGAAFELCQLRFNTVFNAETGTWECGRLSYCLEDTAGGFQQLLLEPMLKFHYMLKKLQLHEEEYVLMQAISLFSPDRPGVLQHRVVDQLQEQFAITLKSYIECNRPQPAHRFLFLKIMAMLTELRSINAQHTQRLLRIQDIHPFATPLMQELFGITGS
# UniProt P33261, whole entry, looked up: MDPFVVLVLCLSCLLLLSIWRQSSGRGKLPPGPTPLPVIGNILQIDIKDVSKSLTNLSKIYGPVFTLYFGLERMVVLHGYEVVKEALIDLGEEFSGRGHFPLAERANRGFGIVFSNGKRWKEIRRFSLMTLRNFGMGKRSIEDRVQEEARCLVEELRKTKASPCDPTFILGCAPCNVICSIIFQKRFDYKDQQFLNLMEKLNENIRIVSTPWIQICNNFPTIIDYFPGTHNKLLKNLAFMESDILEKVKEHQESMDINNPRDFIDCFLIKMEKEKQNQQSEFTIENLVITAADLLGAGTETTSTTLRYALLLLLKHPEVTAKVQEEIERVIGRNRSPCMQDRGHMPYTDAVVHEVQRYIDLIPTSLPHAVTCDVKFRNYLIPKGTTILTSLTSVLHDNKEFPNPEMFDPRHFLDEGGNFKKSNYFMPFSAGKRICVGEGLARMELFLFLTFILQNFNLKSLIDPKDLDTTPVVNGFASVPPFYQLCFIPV
# UniProt P11712, whole entry, looked up: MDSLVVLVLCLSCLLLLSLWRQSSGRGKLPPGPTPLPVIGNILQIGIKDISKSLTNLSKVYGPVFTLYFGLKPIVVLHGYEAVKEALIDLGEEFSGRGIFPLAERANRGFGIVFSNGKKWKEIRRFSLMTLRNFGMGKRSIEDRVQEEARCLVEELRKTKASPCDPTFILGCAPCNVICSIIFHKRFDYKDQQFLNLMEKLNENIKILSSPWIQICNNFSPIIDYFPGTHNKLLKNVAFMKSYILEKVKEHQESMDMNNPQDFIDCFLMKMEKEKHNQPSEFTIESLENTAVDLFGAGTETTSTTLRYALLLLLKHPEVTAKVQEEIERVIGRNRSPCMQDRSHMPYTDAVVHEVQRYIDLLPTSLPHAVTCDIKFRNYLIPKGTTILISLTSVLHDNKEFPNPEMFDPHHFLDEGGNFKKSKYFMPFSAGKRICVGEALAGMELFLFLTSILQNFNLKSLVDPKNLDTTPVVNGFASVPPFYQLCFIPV
# UniProt P04406: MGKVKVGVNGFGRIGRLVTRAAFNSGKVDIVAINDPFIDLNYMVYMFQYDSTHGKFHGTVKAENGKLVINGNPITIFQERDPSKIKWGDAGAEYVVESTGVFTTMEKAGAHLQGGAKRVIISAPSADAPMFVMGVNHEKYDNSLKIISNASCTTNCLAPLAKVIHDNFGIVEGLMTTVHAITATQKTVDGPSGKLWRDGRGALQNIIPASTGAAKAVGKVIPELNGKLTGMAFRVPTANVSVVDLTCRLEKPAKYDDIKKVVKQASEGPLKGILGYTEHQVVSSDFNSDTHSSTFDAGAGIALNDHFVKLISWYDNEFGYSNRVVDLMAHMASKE
# UniProt Q01717: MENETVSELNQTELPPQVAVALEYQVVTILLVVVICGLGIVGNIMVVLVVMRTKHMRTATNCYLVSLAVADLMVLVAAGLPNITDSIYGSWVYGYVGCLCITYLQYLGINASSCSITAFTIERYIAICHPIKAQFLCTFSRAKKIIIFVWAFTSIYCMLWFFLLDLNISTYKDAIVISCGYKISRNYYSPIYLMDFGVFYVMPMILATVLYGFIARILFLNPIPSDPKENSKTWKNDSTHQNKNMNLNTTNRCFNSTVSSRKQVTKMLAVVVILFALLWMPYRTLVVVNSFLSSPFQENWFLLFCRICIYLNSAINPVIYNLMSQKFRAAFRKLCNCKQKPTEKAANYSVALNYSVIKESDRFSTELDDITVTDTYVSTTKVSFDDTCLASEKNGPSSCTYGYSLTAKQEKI
# UniProt Q9UNQ0: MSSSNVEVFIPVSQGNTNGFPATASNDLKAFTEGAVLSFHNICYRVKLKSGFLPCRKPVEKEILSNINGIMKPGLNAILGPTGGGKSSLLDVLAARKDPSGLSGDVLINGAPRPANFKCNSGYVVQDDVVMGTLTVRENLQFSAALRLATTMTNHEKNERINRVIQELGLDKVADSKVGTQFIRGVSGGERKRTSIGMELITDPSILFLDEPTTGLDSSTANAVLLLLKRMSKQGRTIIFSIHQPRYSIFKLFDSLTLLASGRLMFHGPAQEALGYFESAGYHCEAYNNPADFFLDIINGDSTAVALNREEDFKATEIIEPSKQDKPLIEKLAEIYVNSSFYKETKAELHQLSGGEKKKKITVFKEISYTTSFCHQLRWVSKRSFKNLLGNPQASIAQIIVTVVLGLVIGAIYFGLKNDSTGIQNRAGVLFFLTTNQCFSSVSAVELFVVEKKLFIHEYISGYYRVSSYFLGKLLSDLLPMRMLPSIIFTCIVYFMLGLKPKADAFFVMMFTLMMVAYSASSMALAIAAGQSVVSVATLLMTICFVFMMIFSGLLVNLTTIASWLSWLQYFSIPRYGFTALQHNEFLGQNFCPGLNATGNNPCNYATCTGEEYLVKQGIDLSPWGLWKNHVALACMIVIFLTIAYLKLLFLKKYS
# Assays:
# [1] = target: Glucocorticoid receptor (Homo sapiens) (UniProt P04150); test: ATG_GR_TRANS: Attagene TRANS-FACTORIAL HepG2 Assay for human Glucocorticoid Receptor (GR) (AID 2282978); details: HepG2 Attagene TRANS GR reporter, mRNA transcription;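 note: activators score as hits since higher reporter transcript over DMSO is fitted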
# Method in brief: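 In this trans-factorial format, exogenous NR-GAL4 chimeric proteins in transfected HepG2 cells regulate GAL4-UAS reporter transcription. After 24 h treatment, reporter mRNA induction relative to DMSO is read by RT-PCR and capillary electrophoresis.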
# [2] = target: Bile acid receptor (Homo sapiens) (UniProt Q96RI1); test: ATG_FXR_TRANS: Attagene TRANS-FACTORIAL HepG2 Assay for Farnesoid X Receptor (FXR) (AID 2282979); details: HepG2 Attagene TRANS FXR-GAL4 reporter transcription;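 note: hits raise reporter mRNA above DMSO so AC50 marks FXR activation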
# Method in brief: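 Transient transfection of HepG2 with multiplexed GAL4-UAS reporter units; exogenous FXR-GAL4 chimera. Dose 24 h → TriZol RNA → oligo(dT) RT → PCR, 6-FAM primer extension, HpaI cut → CE. Gain vs DMSO.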
# [3] = target: Nuclear receptor subfamily 1 group I member 2 (Homo sapiens) (UniProt O75469); test: ATG_PXR_TRANS: Attagene TRANS-FACTORIAL HepG2 Assay for human Pregnane X Receptor (PXR) (AID 2283008)
# Method in brief: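 Trans-factorial format: exogenous NR-Gal4 fusion activity, not endogenous factor, in transfected human HepG2 liver cells. After 24 h dosing, RNA isolated, reverse-transcribed, amplified and resolved by capillary electrophoresis; induction scored versus DMSO.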
# [4] = read-out: HMG-CoA synthase (HMGCS2), HMGCS2 (gene 3158); test: CLD_HMGCS2_6hr: CellzDirect (CLD) Gene Expression Assay for HMG-CoA synthase (HMGCS2) at 6 hours (AID 2283682);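 note: actives raise HMGCS2 transcript above the 0.2% DMSO vehicle baseline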
# Method in brief: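 HMGCS2 transcript induction read by quantitative nuclease protection with chemiluminescence, 6 h after dosing of primary human hepatocytes. Baseline was 0.2% DMSO vehicle; phase-contrast morphology gave a yes/no cytotoxicity annotation.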
# [5] = read-out: Cytochrome P450 2C19 (Homo sapiens) (UniProt P33261); test: CLD_CYP2C19_24hr: CellzDirect (CLD) Gene Expression Assay for xenobiotic metabolism (CYP2C19) at 24 hours (AID 2283687);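 for outcome: activity means mRNA induction above DMSO vehicle baseline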
# Method in brief: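 CYP2C19 mRNA was quantified by qNPA chemiluminescence after 24 h of daily dosing of cultured human primary hepatocytes from two donors; vehicle was 0.2% DMSO, and increases over DMSO baseline were fitted.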
# [6] = read-out: Cytochrome P450 2C9 (Homo sapiens) (UniProt P11712); test: CLD_CYP2C9_24hr: CellzDirect (CLD) Gene Expression Assay for xenobiotic metabolism (CYP2C9) at 24 hours (AID 2283688);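 note: potency for induction meaning a rise in CYP2C9 mRNA over DMSO vehicle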
# Method in brief: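 Induction of CYP2C9 mRNA was quantified by quantitative nuclease protection assay (chemiluminescence), gain of signal versus 0.2% DMSO vehicle, 24 h after dosing. Human primary hepatocytes (two donors) received fresh chemical daily at multiple concentrations; morphology-based cytotoxicity flagged yes/no.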
# [7] = read-out: organic anion transporter (SLCO1B1), SLCO1B1 (gene 10599); test: CLD_SLCO1B1_24hr: CellzDirect (CLD) Gene Expression Assay for organic anion transporter (SLCO1B1) at 24 hours (AID 2283690)
# Method in brief: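 SLCO1B1 mRNA induction read at 24 h by quantitative nuclease protection assay (chemiluminescence), analyzed against DMSO baseline. Human hepatocyte cultures from separate donors received fresh dosing solutions daily; vehicle 0.2% DMSO; cytotoxicity flagged by phase-contrast morphology.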
# [8] = read-out: Glyceraldehyde-3-phosphate dehydrogenase (Homo sapiens) (UniProt P04406); test: CLD_GAPDH_24hr: CellzDirect (CLD) Gene Expression Assay for Baseline Control (Glyceraldehyde 3-phosphate dehydrogenase) at 24 hours (AID 2283692)
# Method in brief: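 GAPDH baseline-control readout: qNPA chemiluminescent mRNA signal in human primary hepatocytes harvested 24 h after daily dosing, normalised to 0.2% DMSO with positive fitting direction; cytotoxicity annotated by phase-contrast morphology.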
# [9] = read-out: ABC Transporter (ABCB11), ABCB11 (gene 8647); test: CLD_ABCB11_48hr: CellzDirect (CLD) Gene Expression Assay for ABC Transporter (ABCB11) at 48 hours (AID 2283697)
# Method in brief: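 Induction of ABCB11 mRNA relative to 0.2% DMSO, measured at 48 h by qNPA chemiluminescence. Cultured human hepatocytes (two donors) received fresh dosing solutions at several concentrations on two consecutive days.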
# [10] = read-out: Cytochrome P450 2C19 (Homo sapiens) (UniProt P33261); test: CLD_CYP2C19_48hr: CellzDirect (CLD) Gene Expression Assay for xenobiotic metabolism (CYP2C19) at 48 hours (AID 2283700);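 for outcome: fitted upward so actives raise CYP2C19 mRNA above the 0.2% DMSO vehicle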
# Method in brief: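 CYP2C19 mRNA induction read by chemiluminescent quantitative nuclease protection assay after 48 h, with fresh compound added daily for two days to cultured human liver hepatocytes. Activity fitted upward against 0.2% DMSO vehicle.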
# [11] = target: rat Thyrotropin Releasing Hormone Receptor (TRH), Trhr (gene 25570) (UniProt Q01717); test: NVS_GPCR_rTRH: NovaScreen (NVS) G Protein-Coupled Receptor Assay for rat Thyrotropin Releasing Hormone Receptor (TRH) (AID 2283329);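 note: hit means lower bound tracer signal versus DMSO baseline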
# Method in brief: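 Rat forebrain membrane prep, radioligand displacement, filter scintillation readout at 4 h. Single conc 25 uM, duplicate; actives retested as concentration series. DMSO = negative control/baseline.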
# [12] = ATG_Hpa5_TRANS: Attagene TRANS-FACTORIAL HepG2 Assay for human GAL4-Hpa5 Hepatocyte Transcription Factor Basal Promoter (AID 2282975); details: HepG2 Attagene GAL4-Hpa5 transcription reporter;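 note: hits are increases in reporter mRNA over DMSO baseline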
# Method in brief: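 Gain-of-signal versus DMSO is fitted for reporter mRNA quantified by RT-PCR and capillary electrophoresis after 24 h exposure. This endpoint is an internal background marker in transiently transfected HepG2 cells carrying GAL4-UAS reporter units.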
# [13] = read-out: Cytochrome P450 2C19 (Homo sapiens) (UniProt P33261); test: CLD_CYP2C19_6hr: CellzDirect (CLD) Gene Expression Assay for xenobiotic metabolism (CYP2C19) at 6 hours (AID 2283678)
# Method in brief: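 CYP2C19 transcript induction was quantified by quantitative nuclease protection assay with chemiluminescent read-out, 6 h after dosing. Cells were primary human hepatocytes from two donor preparations, given fresh dosing solutions daily in 0.2% DMSO vehicle. Activity was relative to DMSO.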
# [14] = read-out: Glyceraldehyde-3-phosphate dehydrogenase (Homo sapiens) (UniProt P04406); test: CLD_GAPDH_6hr: CellzDirect (CLD) Gene Expression Assay for Baseline Control (Glyceraldehyde 3-phosphate dehydrogenase) at 6 hours (AID 2283681)
# Method in brief: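 GAPDH baseline-control readout from qNPA (S1 nuclease digestion, probe hybridization, chemiluminescence) in lysates of cultured human hepatocytes harvested 6 h post-dosing. Chemicals tested at multiple concentrations versus 0.2% DMSO vehicle; microscopy-based cytotoxicity flagged yes/no.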
# [15] = read-out: Broad substrate specificity ATP-binding cassette transporter ABCG2 (Homo sapiens) (UniProt Q9UNQ0); test: CLD_ABCG2_48hr: CellzDirect (CLD) Gene Expression Assay for ABC Transporter (ABCG2) at 48 hours (AID 2283704)
# Method in brief: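 ABCG2 transcript measured at 48 h by quantitative nuclease protection (chemiluminescent) and fitted for increase relative to 0.2% DMSO. Hepatocyte cultures from separate donors got fresh compound daily over two days; morphology annotated cytotoxicity.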
# [16] = Tanguay_ZF_120hpf_PIG_legacy: (Legacy) Oregon State University Tanguay Lab 120 Hour Post-fertilization zebrafish Assay for Pigmentation Malformation (AID 2283650)
# Method in brief: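 Endpoint is incidence of abnormal pigmentation at 120 hpf in dechorionated 5D zebrafish exposed singly from 6 hpf at 28C, DMSO vehicle at 0.64%. Embryos dying by 24 or 120 hpf are excluded from scoring.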
smiles,measurement,setting,value
O=NN(c1ccccc1)c1ccccc1,AC50,[1],inconclusive: 100 µM
same,outcome,[2],inactive
COC(=O)c1ccccc1S(=O)(=O)NC(=O)Nc1nc(C)nc(OC)n1,AC50,[2],inconclusive: 82.3 nM and inconclusive: 84.8 µM
same,AC50,[3],inconclusive: 7.32 µM
same,AC50,[4],active: 0.0117 µM
same,outcome,[5],inactive
same,AC50,[6],inconclusive: 1.89 µM
same,outcome,[7],inactive
same,outcome,[8],inactive
same,AC50,[9],inconclusive: 20 µM
same,outcome,[10],inactive
Nc1ccc([N+](=O)[O-])cc1,outcome,[3],inactive
O=C(CBr)OCc1ccccc1,outcome,[1],inactive
same,AC50,[3],inconclusive: 100 µM
same,outcome,[11],inactive
CCCC1COC(Cn2cncn2)(c2ccc(Cl)cc2Cl)O1 (centres undefined),outcome,[12],inactive
same,outcome,[1],inactive
same,AC50,[2],inconclusive: 7.93 µM and inconclusive: 50.5 µM
same,AC50,[13],inconclusive: 20 µM
same,AC50,[14],inconclusive: 7.87 µM
same,outcome,[4],inactive
same,AC50,[5],inconclusive: 20 µM
same,AC50,[6],inconclusive: 37.2 µM
same,AC50,[7],inconclusive: 20 µM
same,AC50,[8],inconclusive: 7.73 µM
same,AC50,[10],inconclusive: 31.5 µM
same,outcome,[15],inactive
CCOC(=O)C(O)(c1ccc(Cl)cc1)c1ccc(Cl)cc1,AC50,[3],active: 18.3 µM
same,outcome,[16],inactive

# Looked up one by one from the entries so far:
smiles,measurement,setting,value
COC(=O)c1ccccc1S(=O)(=O)NC(=O)Nc1nc(C)nc(OC)n1,outcome,[10],inactive
CCOC(=O)C(O)(c1ccc(Cl)cc1)c1ccc(Cl)cc1,AC50,[3],active: 18.3 µM

# From PubChem BioAssay (EPA / NIEHS)
